Laboratory results from paper PMC7747709.
Construct, isoform or probe ends are uncertain for at least one entry.

Chains of the proteins cited; added tags and fusions are not shown. A line that says so, or that is headed by a name, gives the form on record, which may keep a tag or linker.
chCD40ED (chicken CD40 extra domain) (Gallus gallus), one chain, as listed by the source: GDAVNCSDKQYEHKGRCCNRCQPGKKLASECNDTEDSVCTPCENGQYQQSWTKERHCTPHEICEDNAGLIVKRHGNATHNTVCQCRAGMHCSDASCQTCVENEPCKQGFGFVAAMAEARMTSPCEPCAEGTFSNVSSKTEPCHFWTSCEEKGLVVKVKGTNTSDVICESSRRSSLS

Legend:
[1] = system: chCD40ED (chicken CD40 extra domain) (Gallus gallus); assay: dot blot; conditions: binding at 25 uM or higher, Dot blot: protein 15 ug/mL on PVDF, aptamer 12-50 uM, KPL blocking/wash buffers (IPBST negative control), proteolysis: 25 mM NH4HCO3 pH ~7.5, 37 C, 1 h, recombinant protein, single-stranded DNA
[2] = system: chCD40ED (chicken CD40 extra domain) (Gallus gallus); assay: limited trypsin proteolysis protection, LC-ESI-MS; conditions: 25 mM NH4HCO3 pH ~7.5, 37 C; Dot blot: protein 15 ug/mL on PVDF, aptamer 12-50 uM, KPL blocking/wash buffers (IPBST negative control); proteolysis: 25 mM NH4HCO3 pH ~7.5, 37 C, 1 h; recombinant protein; label: 5' biotin (dot blot); single-stranded DNA

CCGAATTCGAAGGACAAGAGAGAAAAAACGAATCCCAGGACAGACCGGCGTGTCGAGTCCTCTTTTATGCTACGTCCCGC [SEQ2]
binding result ([1]; label: 5' biotin): binds

CCGAATTCGAAGGACAAGAGAGATGAGGGATGCTGTCAAGTCAGTATGGTTGGTCATCTCTCTTTTATGCTACGTCCCGC [SEQ7]
binding result ([1]; label: 5' biotin): binds

CCGAATTCGAAGGACAAGAGCAACATTTCTTTTACCCCTATCCTTTGCAACTACCCCCATTCTTTTATGCTACGTCCCGC [SEQ8]
binding result ([1]; label: 5' biotin): binds

CCGAATTCGAAGGACAAGAGCAGACAAACGAGTATTAGGACAGAACGGTAGCACGACTCATCTTTTATGCTACGTCCCGC [SEQ1]
binding result ([1]; label: 5' biotin): binds

CCGAATTCGAAGGACAAGAGGTAAGTCACGACGTCCTAGGATGACCAGTTCCGATTGTTCTCTTTTATGCTACGTCCCGC [SEQ6]
binding result ([1]; label: 5' biotin): binds

CCGAATTCGAAGGACAAGAGGTGGAATTGGTAATGGGGTGTAAATGGAGCAGTGAATTCGTCTTTTATGCTACGTCCCGC [SEQ3]
binding result [2]: binds
binding result ([1]; label: 5' biotin (dot blot)): binds

CCGAATTCGAAGGACAAGAGTAAGTGCAGTTTGGGTTTTCTTTTATGCTACGTCCCGCTCTTTTATGCTACGTCCCGC [SEQ5]
binding result ([1]; label: 5' biotin): binds

CCGAATTCGAAGGACAAGAGTAGGGCTACATGGAATAGGGATCAGAAGAGCAGGGCTAGGTCTTTTATGCTACGTCCCGC [SEQ4]
binding result [2]: binds
binding result ([1]; label: 5' biotin (dot blot)): binds
